According to PMC3776120:
Results are given in words; binding and its absence hold for the method and conditions named. For part of these data: Binding seen in cells or lysates may run through a third protein. Some binding calls cover weakened binding; strength is not graded here.

Sequences of proteins named here, by UniProt entry; tags and fusion partners are left off.
UniProt Q38HM4: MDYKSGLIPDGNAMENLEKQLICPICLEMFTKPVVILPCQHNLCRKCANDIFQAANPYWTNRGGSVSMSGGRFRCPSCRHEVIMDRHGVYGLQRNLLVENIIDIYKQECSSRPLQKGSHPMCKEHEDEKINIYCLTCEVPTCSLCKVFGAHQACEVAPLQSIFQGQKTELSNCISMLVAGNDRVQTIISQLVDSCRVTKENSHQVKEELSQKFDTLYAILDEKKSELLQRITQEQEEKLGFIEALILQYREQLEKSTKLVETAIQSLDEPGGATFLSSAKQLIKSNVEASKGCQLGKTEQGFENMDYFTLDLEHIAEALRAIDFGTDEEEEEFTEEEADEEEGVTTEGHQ
UniProt Q969Q1: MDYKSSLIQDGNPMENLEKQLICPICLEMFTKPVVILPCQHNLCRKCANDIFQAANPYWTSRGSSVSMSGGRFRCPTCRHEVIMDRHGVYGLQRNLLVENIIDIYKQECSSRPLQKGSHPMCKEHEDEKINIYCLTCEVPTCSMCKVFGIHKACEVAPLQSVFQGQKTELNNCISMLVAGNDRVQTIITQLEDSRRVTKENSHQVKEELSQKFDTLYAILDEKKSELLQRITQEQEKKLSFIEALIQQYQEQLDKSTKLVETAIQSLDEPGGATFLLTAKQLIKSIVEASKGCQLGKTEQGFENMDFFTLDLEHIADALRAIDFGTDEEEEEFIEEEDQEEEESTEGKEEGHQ
UniProt Q9BYV6: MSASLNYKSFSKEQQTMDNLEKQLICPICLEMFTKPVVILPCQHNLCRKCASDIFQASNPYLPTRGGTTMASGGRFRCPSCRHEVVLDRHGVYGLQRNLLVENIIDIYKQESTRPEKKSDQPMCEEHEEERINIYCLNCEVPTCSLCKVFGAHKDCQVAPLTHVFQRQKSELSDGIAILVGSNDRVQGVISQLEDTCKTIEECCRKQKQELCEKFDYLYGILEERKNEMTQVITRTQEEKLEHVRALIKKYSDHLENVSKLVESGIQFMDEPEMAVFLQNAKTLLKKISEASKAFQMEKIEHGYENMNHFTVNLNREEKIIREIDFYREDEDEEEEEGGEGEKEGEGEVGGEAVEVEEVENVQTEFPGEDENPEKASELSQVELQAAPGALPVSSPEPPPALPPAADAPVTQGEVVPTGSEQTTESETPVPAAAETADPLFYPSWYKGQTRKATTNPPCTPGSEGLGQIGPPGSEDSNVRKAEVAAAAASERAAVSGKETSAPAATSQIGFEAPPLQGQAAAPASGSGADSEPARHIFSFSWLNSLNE

Columns and labels:
[1] = molecular target: MuRF1 (mouse (endogenous in skeletal muscle)) (UniProt Q38HM4); assay: co-IP; quadriceps extracts of WT and MuRF1-KO mice starved for 24 h; 50 mM Tris/Cl pH 8.0, 150 mM NaCl, 1 % NP40, 10 % glycerol, 1 mM DTT; MuRF1 precipitated with rabbit polyclonal anti-RING H2 MuRF1 antibody and Protein A-sepharose at 4 °C; Western blot for Bif-1
[2] = molecular target: MuRF1 (yeast two-hybrid construct) (UniProt Q969Q1); assay: two-hybrid; yeast mating experiments, β-galactosidase reporter; Bif-1 as prey clone
[3] = molecular target: MuRF2 (yeast two-hybrid construct) (UniProt Q9BYV6); assay: as above

binding [1]	binding [2]	binding [3]	Binder
binds	–	–	Endophilin B1/Bif-1 (protein, UniProt Q9JK48-1 1-365) MNIMDFNVKKLAADAGTFLSRAVQFTEEKLGQAEKTELDAHLENLLSKAECTKIWTEKIMKQTEVLLQPNPNARIEEFVYEKLDRKAPSRINNPELLGQYMIDAGTEFGPGTAYGNALIKCGETQKRIGTADRELIQTSALNFLTPLRNFIEGDYKTIAKERKLLQNKRLDLDAAKTRLKKAKAAETKSSSEQELRITQSEFDRQAEITRLLLEGISSTHAHHLRCLNDFVEAQMTYYAQCYQYMLDLQKQLGSFPSNYLSNNNQTSGTPVPYALSNAIGPSAQASTGSLVITCPSNLNDLKESSNNRKARVLYDYDAANSTELSLLADEVITVFSVVGMDSDWLMGERGNQKGKVPITYLELLN
–	binds	no binding	Endophilin B1/Bif-1 (yeast two-hybrid prey clone) (protein, UniProt Q9Y371 1-365) MNIMDFNVKKLAADAGTFLSRAVQFTEEKLGQAEKTELDAHLENLLSKAECTKIWTEKIMKQTEVLLQPNPNARIEEFVYEKLDRKAPSRINNPELLGQYMIDAGTEFGPGTAYGNALIKCGETQKRIGTADRELIQTSALNFLTPLRNFIEGDYKTIAKERKLLQNKRLDLDAAKTRLKKAKAAETRNSSEQELRITQSEFDRQAEITRLLLEGISSTHAHHLRCLNDFVEAQMTYYAQCYQYMLDLQKQLGSFPSNYLSNNNQTSVTPVPSVLPNAIGSSAMASTSGLVITSPSNLSDLKECSGSRKARVLYDYDAANSTELSLLADEVITVFSVVGMDSDWLMGERGNQKGKVPITYLELLN
